Measured values: article PMC7493027, “Mps1 dimerization and multisite interactions with Ndc80 complex enable responsive spindle assembly checkpoint signaling” (Journal of Molecular Cell Biology, 2020)
Results are given in words; binding and its absence hold for the method and conditions named. Binding calls can cover weak binding; strength is not graded here. Sequences can lack the tags named with a protein.

B1: MBP-tagged Mps1 N-terminal fragment (amino acids 1–300), Mps1^N300 (domain or fragment, UniProt P33981 1-300)
chain: MESEDLSGRELTIDSIMNKVRDIKNKFKNEDLTDELSLNKISADTTDNSGTVNQIMMMANNPEDWLSLLLKLEKNSVPLSDALLNKLIGRYSQAIEALPPDKYGQNESFARIQVRFAELKAIQEPDDARDYFQMARANCKKFAFVHISFAQFELSQGNVKKSKQLLQKAVERGAVPLEMLEIALRNLNLQKKQLLSEEEKKNLSASTVLTAQESFSGSLGHLQNRNNSCDSRGQTTKARFLYGENMPPQDAEIGYRNSLRQTNKTKQSCPFGRVPVNLLNSPDCDVKTDDSVVPCFMKRQ
B2: MBP-tagged Mps1^TPR–CTE (domain or fragment, UniProt P33981 62-300)
chain: PEDWLSLLLKLEKNSVPLSDALLNKLIGRYSQAIEALPPDKYGQNESFARIQVRFAELKAIQEPDDARDYFQMARANCKKFAFVHISFAQFELSQGNVKKSKQLLQKAVERGAVPLEMLEIALRNLNLQKKQLLSEEEKKNLSASTVLTAQESFSGSLGHLQNRNNSCDSRGQTTKARFLYGENMPPQDAEIGYRNSLRQTNKTKQSCPFGRVPVNLLNSPDCDVKTDDSVVPCFMKRQ
B3: MBP-tagged Mps1 tetratricopeptide repeat domain (TPR, amino acids 62–192) (domain or fragment, human, UniProt P33981 62-192, looked up)
chain: PEDWLSLLLKLEKNSVPLSDALLNKLIGRYSQAIEALPPDKYGQNESFARIQVRFAELKAIQEPDDARDYFQMARANCKKFAFVHISFAQFELSQGNVKKSKQLLQKAVERGAVPLEMLEIALRNLNLQKK
notes: Mps1, human, tetratricopeptide repeat domain, amino acids 62-192; also called Mps1^TPR; source: Escherichia coli, purified
B4: MBP-tagged Mps1^NTE–TPR (domain or fragment, UniProt P33981 1-192)
chain: MESEDLSGRELTIDSIMNKVRDIKNKFKNEDLTDELSLNKISADTTDNSGTVNQIMMMANNPEDWLSLLLKLEKNSVPLSDALLNKLIGRYSQAIEALPPDKYGQNESFARIQVRFAELKAIQEPDDARDYFQMARANCKKFAFVHISFAQFELSQGNVKKSKQLLQKAVERGAVPLEMLEIALRNLNLQKK

Target: GST-tagged Ndc80C^Bonsai
Experiment: pull-down; GST-tagged Ndc80C^Bonsai as affinity matrix; MBP-tagged Mps1 truncations pulled down (Supplementary Figure S2F); both purified

binding, binds:
B1
B2
B3
B4
